{"source": "PubChem BioAssay AID652259, Drosophila RNAi Screening Center | 2013", "test": "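Genome-wide hunt for genes that control Wingless pathway activity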 (primary screen)", "system": "Drosophila clone 8 imaginal disc epithelial cells", "knock-down reagent": "long dsRNA against Drosophila genes", "conditions": "pathway stimulated by co-transfected Wingless expression plasmid", "detection": "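Firefly luciferase from a tcf-site Wingless reporter, measured alongside co-transfected Renilla luciferase that tracks transfection; pathway stimulated by a Wingless plasmid; the firefly-to-Renilla ratio is not deposited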", "reading the numbers": "firefly reporter light: higher = more Wg reporter light, before normalisation; Renilla control light: higher = more transfected or surviving cells", "rule for the call": "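a knock-down is a candidate when at least two out of four statistical tests show it departing from its plate mean; one test alone signals a weak candidate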", "calls": "active = candidate regulator (raises or lowers reporter); inactive = not a candidate", "note": "The screen tested about 22,000 reagents; shown is an unselected part of those that have a named target and a result. In the full data, 233 (1.1%) got an active call. 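Light values are raw, unnormalised plate reads; the ratio scores behind the reporter calls were not deposited.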 Entries without a mark were called inactive. A plus sign joins genes that one reagent is predicted to hit. The record does not give: the amount of reagent, the time to read-out, the dose of the treatment."}
{"Target gene": "Cdc23 (Cell division cycle 23)", "firefly reporter light, replicate 1": 14736, "Renilla control light, replicate 1": 4617}
{"Target gene": "Sc2", "firefly reporter light, replicate 1": 4392, "Renilla control light, replicate 1": 2579}
{"Target gene": "Prosbeta1 (Proteasome beta1 subunit)", "firefly reporter light, replicate 1": 5208, "Renilla control light, replicate 1": 2352}
{"Target gene": "RanBP3 (Ran binding protein 3)", "firefly reporter light, replicate 1": 1584, "firefly reporter light, replicate 2": 4960, "Renilla control light, replicate 1": 682, "Renilla control light, replicate 2": 1162}
{"Target gene": "CG16717", "firefly reporter light, replicate 1": 9292, "Renilla control light, replicate 1": 3819}
{"Target gene": "Spn75F (Serpin 75F)", "firefly reporter light, replicate 1": 2707, "Renilla control light, replicate 1": 1031}
{"Target gene": "CG10543", "firefly reporter light, replicate 1": 3536, "firefly reporter light, replicate 2": 9232, "Renilla control light, replicate 1": 403, "Renilla control light, replicate 2": 1420}
{"Target gene": "mEFG1 (mitochondrial translation elongation factor G 1)", "firefly reporter light, replicate 1": 1664, "firefly reporter light, replicate 2": 4100, "Renilla control light, replicate 1": 723, "Renilla control light, replicate 2": 1536}
{"Target gene": "brn (brainiac)", "firefly reporter light, replicate 1": 2500, "firefly reporter light, replicate 2": 6546, "Renilla control light, replicate 1": 1448, "Renilla control light, replicate 2": 2203}
{"Target gene": "Cks85A (Cyclin-dependent kinase subunit 85A)", "firefly reporter light, replicate 1": 12868, "Renilla control light, replicate 1": 3510}
{"Target gene": "CG9933", "firefly reporter light, replicate 1": 2995, "firefly reporter light, replicate 2": 5426, "Renilla control light, replicate 1": 1021, "Renilla control light, replicate 2": 2109}
{"Target gene": "CG33770", "firefly reporter light, replicate 1": 33824, "Renilla control light, replicate 1": 6256}
{"Target gene": "Ppn (Papilin)", "firefly reporter light, replicate 1": 6928, "Renilla control light, replicate 1": 2923}
{"Target gene": "Tim17a2", "firefly reporter light, replicate 1": 17621, "Renilla control light, replicate 1": 5876}

In a second layout: entries from further up.
{"Target gene":"Cks85A (Cyclin-dependent kinase subunit 85A)","firefly reporter light, replicate 1":12868,"Renilla control light, replicate 1":3510}
{"Target gene":"CG9933","firefly reporter light, replicate 1":2995,"firefly reporter light, replicate 2":5426,"Renilla control light, replicate 1":1021,"Renilla control light, replicate 2":2109}
{"Target gene":"CG33770","firefly reporter light, replicate 1":33824,"Renilla control light, replicate 1":6256}

Additional reagents:
{"Target gene": "CG9689", "firefly reporter light, replicate 1": 2971, "firefly reporter light, replicate 2": 5996, "Renilla control light, replicate 1": 685, "Renilla control light, replicate 2": 1495}
{"Target gene": "Lap1", "firefly reporter light, replicate 1": 4856, "Renilla control light, replicate 1": 1770}
{"Target gene": "fon (fondue)", "firefly reporter light, replicate 1": 8432, "Renilla control light, replicate 1": 2553}
{"Target gene": "CG9686", "firefly reporter light, replicate 1": 18613, "Renilla control light, replicate 1": 7584}
{"Target gene": "ASPP", "firefly reporter light, replicate 1": 2290, "firefly reporter light, replicate 2": 9794, "Renilla control light, replicate 1": 250, "Renilla control light, replicate 2": 1392}
{"Target gene": "Neurochondrin", "firefly reporter light, replicate 1": 7744, "Renilla control light, replicate 1": 2572}
{"Target gene": "CG5157", "firefly reporter light, replicate 1": 6886, "Renilla control light, replicate 1": 2749}
{"Target gene": "yps (ypsilon schachtel)", "firefly reporter light, replicate 1": 13757, "Renilla control light, replicate 1": 3037}
{"Target gene": "CG1172 + Or83a", "firefly reporter light, replicate 1": 15352, "Renilla control light, replicate 1": 4602}
{"Target gene": "Lsd-2 (Lipid storage droplet-2)", "firefly reporter light, replicate 1": 2502, "firefly reporter light, replicate 2": 11802, "Renilla control light, replicate 1": 971, "Renilla control light, replicate 2": 4048}
{"Target gene": "CG12209", "firefly reporter light, replicate 1": 1459, "firefly reporter light, replicate 2": 6106, "Renilla control light, replicate 1": 617, "Renilla control light, replicate 2": 2346}
